In patent US20160024210A1 (AstraZeneca / MedImmune, published 2016):

B1: hamster anti-human H7CR antibody clone 4.5 (antibody, V domains shown)
VH: QIQLQESGPGLVKPSQSLSLTCSVTGFSITTGGYYWNWIRQFPGKKLEWMGYIYTSGRTSYNPSLKSRISITRDTSKNQFFLQLNSMTTEDTATYYCADMADKGGWFAYWGQGTLVTVSS
VL: DIVMTQSPSSLAVSAGEKVTISCLSSQSLFSSNTKRNYLNWYLQKPGQSPKLLIYHASTRLTGVPGRFIGSGSGTDFTLTVSTVQAEDLGDYFCQQHYETPLTFGDGTRLEIK
B2: hamster anti-human H7CR antibody clone 7.8 (antibody, V domains shown)
VH: QIQLQESGPGLVKPSQSLSLTCSVTGFSITTGGYYWNWIRQFPGKKLEWMGYIYSSGRTSYNPSLKSRISITRDTSKNQFFLQLNSVTTEDTATYYCADMADKGGWFDYWGQGTLVTVSS
VL: DIVMTQSPSSLTVSAGEKVTISCLSSQSLFSSNTNRNYLSWYLQRPGQSPKLLIYHASTRLTGVPGRFIGSGSGTDFTLTVSTVQAGDLGDYFCQQHYVTPLTFGDGTRLEIK
notes: Hamster monoclonal antibody; also called H7CR7.8

Molecular target: cynomolgus monkey H7CR (cynomolgus monkey)
Experiment: flow cytometry histograms of cynomolgus monkey blood cell subsets

Row | Binder | binding
1 | B1 | binds
2 | B2 | binds

No constants are given. Whether binding was seen depends on the method and setting. Binding calls can cover weak binding; strength is not graded here.
